# Results: the supplement of paper PMC3334620
# Over roughly 33,000 sequences, “E-score (-0.5 to 0.5)” has its median near -0.0034; the highest 2% begin near 0.25. Some of the results follow.
# Target: T1, Yap3 (UniProt P38749)
# T1 sequence: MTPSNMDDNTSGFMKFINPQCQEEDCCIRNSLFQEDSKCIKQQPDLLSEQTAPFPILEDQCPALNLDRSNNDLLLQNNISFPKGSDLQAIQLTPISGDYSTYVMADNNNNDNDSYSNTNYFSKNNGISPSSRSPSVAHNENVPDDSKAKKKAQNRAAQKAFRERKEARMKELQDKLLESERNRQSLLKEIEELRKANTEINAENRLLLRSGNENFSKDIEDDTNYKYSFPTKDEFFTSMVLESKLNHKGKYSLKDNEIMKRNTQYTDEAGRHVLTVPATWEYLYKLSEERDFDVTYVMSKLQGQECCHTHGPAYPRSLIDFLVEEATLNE
# Experiment: PBM E-score (8-mer binding enrichment) (E-score (-0.5 to 0.5)); higher = stronger / more preferred TF binding
# Conditions: protein concentration: 100 nM; construct: GST-full length
# Outline: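 For each ungapped eight-base word taken together with its reverse complement, the Universal PBM Analysis Suite assigned an E-score. Binding data came from GST-tagged yeast transcription factors, applied at about 100-200 nM, on universal all-10-mer Agilent arrays made double-stranded by primer extension. Fluorescent anti-GST marked bound protein, and scans were normalised with masliner.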
row,Sequence,PBM E-score
1,ATCCATCC,0.118
2,GACGCAAC,-0.0173
3,AAGTCCAT,-0.073
4,GTAAGCCA,0.0132
5,AAGCGGAA,0.087
6,CATCATGC,0.117
7,ATTTCTTG,0.171
8,CCCATCCG,-0.229
9,CCCATATA,0.0424
10,GGGACACA,-0.0101
11,AGTGAAAC,0.0554
12,CATTATGC,0.0641
13,GAGTTACA,0.0801
14,ATATTCTC,0.295
15,CATATGAC,0.102
16,GCACTTCA,0.0301
17,CTCTCGGA,0.00281
18,CCTCGAAC,-0.0642
19,GAGCCACC,-0.241
20,ATGCAAAA,0.242
21,TCTGAAAA,0.113
22,CATATAAA,0.183
23,CGGATCTC,-0.131
24,CATCACCG,-0.0483
25,ATAGTGTC,0.051

row,Sequence,PBM E-score
1,CGGTGAGC,-0.127
2,CCTGTCTA,-0.0391
3,CGCAAGTA,0.125
4,AACCGAAC,-0.0848
5,CCGCTCGA,-0.0717
6,CCGACAAA,0.1
7,CCGAGAAG,0.0262
8,CCTGGCGC,-0.149
9,AGTTCACG,-0.0944
10,CAACTCCC,0.067
11,AAGTTCAC,0.00912
12,CGCTTCGC,-0.0694
13,CAACCCAC,-0.0237
14,AACCCAAT,-0.00184
15,CCCTGTAC,-0.311
16,GCGGAGAA,0.0215
17,TGTTATAA,0.252
18,AATGGACA,0.118
19,CCTCGTGA,-0.131
20,ATTCACGG,0.00937
21,GTTAAGAA,-0.0121
22,AGCTAGTG,-0.1
23,CGGCATAG,-0.0989
24,CCCATCAG,-0.388
25,TATTTTAA,0.171

row,Sequence,PBM E-score
1,ACGCAAAC,0.06
2,ACCCCAGC,-0.144
3,ATTACGAA,0.329
4,CCCGACAG,-0.0497
5,ATATGAAT,0.238
6,AGGCCGGC,-0.226
7,CCCGTTAG,-0.25
8,AGGTGCTA,-0.081
9,GATGGTGC,-0.294
10,ATGAACTA,0.21
11,ACGTCTTC,-0.0899
12,ACCTATGC,-0.0927
13,CGCGTTAG,-0.0975
14,ATACGTGA,0.176
15,ATGTCTAG,0.033
16,CCTCGGTA,-0.223
17,CCCAGCCA,-0.00872
18,AGCTGCGC,-0.0982
19,AGGGAAGG,-0.217
20,TAAATCTA,0.0939
21,CCATTCTC,-0.0378
22,ACTTGCGC,0.036
23,CGGTGTAG,0.00612
24,ATAGTACA,0.122
25,AACGCAAT,0.134

# Individual results from the results shown:
# ACTTGCGC – PBM E-score: 0.036
# ATGTCTAG – PBM E-score: 0.033
# AACGCAAT – PBM E-score: 0.134
# AGCTGCGC – PBM E-score: -0.0982
# ATAGTACA – PBM E-score: 0.122
# CCATTCTC – PBM E-score: -0.0378
# CCCAGCCA – PBM E-score: -0.00872

# Next part

row,Sequence,PBM E-score
1,ACCACTTC,-0.043
2,AAGCATCA,-0.00288
3,CGTATGGC,0.0934
4,GTCTTGGA,-0.0918
5,AATAGAGC,0.0845
6,GGCCCGGA,-0.188
7,CCGCGCCC,-0.218
8,AAGAGTAC,0.0316
9,TCTCAAGA,-0.0924
10,CAAAATCA,0.225
11,CGAGGTCA,-0.0442
12,GCTCCCGA,-0.0926
13,GCTGCTCC,-0.307
14,AACGTAGC,0.0205
15,ATGACTTA,0.119
16,CACGGAAG,-0.15
17,GAGCGCGA,0.197
18,ACATGGGC,0.00331
19,CGCCGTCA,-0.0719
20,TCCGCTAA,-0.0432
21,ACCCTTCT,-0.142
22,CGCTGTAC,0.0676
23,TTACACAA,0.248
24,TCGCTGCA,-0.0483
25,CTGGATTA,0.0684

row,Sequence,PBM E-score
1,ATACTCGA,-0.0822
2,CGCGCGCG,0.0113
3,CTGTAGAC,-0.0617
4,AAGACCGC,-0.181
5,CCACCTAG,-0.209
6,CATCATCG,0.0276
7,TCCGGAGA,-0.179
8,ACCAACTA,0.0271
9,AGGTCCTC,-0.0704
10,AGCGTGAA,-0.0399
11,TAGGCAGA,0.0268
12,GCTGGGCA,-0.229
13,ATCTGACC,-0.0106
14,GAGTGATC,0.0808
15,ATTTACGA,0.127
16,ATTTCCAG,0.131
17,CCCATATC,0.065
18,CCCTTAAA,-0.0434
19,CGCAACAA,0.132
20,GCTTCTAA,-0.0272
21,CACATAGG,-0.0256
22,CAGGTTGA,-0.222
23,CCTCCATC,-0.239
24,AAAATAAG,0.271
25,ATTGCTTC,-0.0347

row,Sequence,PBM E-score
1,AAAACAAC,0.00549
2,ACATTTCT,0.119
3,AGGGCAAC,0.0445
4,CACTCAAG,-0.209
5,ATCGCGGC,0.0788
6,CCATGCAG,-0.157
7,AACCGGCA,-0.122
8,CGAACGCA,0.233
9,GCGCCTCA,0.00501
10,GCTTAGAA,0.0422
11,CTGTAGCA,-0.115
12,AATCCATC,0.0807
13,GAGGCGAC,-0.134
14,AGCAACTA,0.143
15,CCTTAGTC,-0.046
16,CAAAGTTA,0.156
17,CAAGCGAA,0.0562
18,ATTTGGGG,-0.0596
19,TCGGCCCA,-0.075
20,GGCTCGGA,-0.319
21,ATCTTAAT,0.0977
22,CTGGTTAC,-0.139
23,TCGTTACA,0.118
24,AAGGCCGG,-0.131
25,GGTAGGGA,-0.114

row,Sequence,PBM E-score
1,ACTTACAT,0.122
2,CCCGCTAC,-0.0736
3,AGAAACAC,0.0529
4,CACGTAAA,-0.0521
5,CCTCTGTC,-0.0561
6,ACCATAAC,0.0816
7,AAAAGGAT,0.103
8,GACGTCAC,-0.0471
9,CGCCCCAA,0.0626
10,GCTGTCCC,-0.27
11,CGTTTCTC,-0.0335
12,ACTGGCTA,-0.077
13,CTCAGTAC,0.0992
14,AGCGTGCC,-0.187
15,GAGTTCCA,0.0016
16,CAACAAGA,0.067
17,AACTCCAA,0.0543
18,CATAAAAG,0.0938
19,CCACCTAC,-0.0723
20,AGGACCAA,0.0138
21,AGATAGGA,-0.165
22,ACATCGAA,0.125
